# Measured values published in patent publication US11630106B2, “Diagnostic test for distinguishing the smoking status of a subject” (PHILIP MORRIS PRODUCTS S.A., priority 2017, dated 2023).
# Several values for one entry are separate records, joined by “and”; a condition that tells them apart may be missing. Equal values may be shown once. For at least one compound, name, drawing or mass did not settle the structure.
# Assay: Randomized, controlled, open-label, 3-arm study (CC, SA, SW): total NNAL, CEMA and free cotinine measured in urine
# Format: in vivo, human
# Conditions: for Total NNAL (pg/mL) CC: CC arm; for Total NNAL (pg/mL) SA: SA arm; for Total NNAL (pg/mL) SW: SW arm; for change in total NNAL compared to baseline: smoker of conventional cigarettes
# Description: The study included healthy smokers switching to a heat-not-burn (smoke-free alternative (SW)) product or those observing smoking abstinence (SA), compared with continuing to use CC, for 5 days in confinement and prolonged by 85 days in an ambulatory setting. This was an ad libitum smoking study. Baseline measurements are taken by allowing the subject to smoke their chosen brand of conventional cigarette for 2 days. After this 2 day period, the subject is then elected to continue smoking conventional cigarettes, to switch to a smoke-free alternative or to abstain from smoking. The investigational period then begins. Methods for measuring each of the metabolites are described in Haziza et al. (2017) Data in Brief 10, 283-293.
# During the confinement period, compliance to product/regimen allocation (exclusive use of smoke-free alternative and CC in SW and CC arms, respectively, and full abstinence from smoking in the SA arm) was ensured by strict distribution of each tobacco stick/CC when requested by the subject. During the ambulatory period, the subjects randomized to the SW arm were instructed to exclusively use HNB products and subjects randomized to the SA arm were instructed to abstain from smoking.
# Furthermore, the data are represented as boxplots in the figures below. The bottom of the box is the first quartile (value below which 25% of the observations lie), the top is the third quartile (value below which 75% of the observations lie) and the middle bar is the median of the observations. The whiskers extend to the minimum observed value and maximum observe value respectively.
structure (smiles),measurement,setting,value
"CN(CCCC(O)c1cccnc1)N=O (centres unmarked) [Total NNAL, 4-(methylnitrosamino)-1-(3-pyridyl)-1-butanol]",Total NNAL (pg/mL) CC,"Baseline, IQR",[46.60; 109.00]
same,Total NNAL (pg/mL) CC,"Day 0, IQR",[46.60; 109.00]
same,Total NNAL (pg/mL) CC,"Day 1, IQR",[52.40; 128.00]
same,Total NNAL (pg/mL) CC,"Day 2, IQR",[39.80; 122.00]
same,Total NNAL (pg/mL) CC,"Day 3, IQR",[43.50; 109.00]
same,Total NNAL (pg/mL) CC,"Day 4, IQR",[46.20; 122.00]
same,Total NNAL (pg/mL) CC,"Day 5, IQR",[37.70; 115.00]
same,Total NNAL (pg/mL) CC,"Day 30, IQR",[33.30; 132.00]
same,Total NNAL (pg/mL) CC,"Day 60, IQR",[44.90; 124.00]
same,Total NNAL (pg/mL) CC,"Day 90, IQR",[39.30; 107.00]
same,Total NNAL (pg/mL) CC,"Day −1, IQR",[45.50; 145.00]
same,Total NNAL (pg/mL) SA,"Baseline, IQR",[28.00; 105.00]
same,Total NNAL (pg/mL) SA,"Day 0, IQR",[28.00; 105.00]
same,Total NNAL (pg/mL) SA,"Day 1, IQR",[25.70; 106.00]
same,Total NNAL (pg/mL) SA,"Day 2, IQR",[14.80; 89.30]
same,Total NNAL (pg/mL) SA,"Day 3, IQR",[13.10; 63.80]
same,Total NNAL (pg/mL) SA,"Day 4, IQR",[12.00; 57.70]
same,Total NNAL (pg/mL) SA,"Day 5, IQR",[9.12; 45.60]
same,Total NNAL (pg/mL) SA,"Day 30, IQR",[8.92; 29.60]
same,Total NNAL (pg/mL) SA,"Day 60, IQR",[5.30; 27.90]
same,Total NNAL (pg/mL) SA,"Day 90, IQR",[2.50; 31.20]
same,Total NNAL (pg/mL) SA,"Day −1, IQR",[28.20; 131.00]
same,Total NNAL (pg/mL) SW,"Baseline, IQR",[38.45; 98.25]
same,Total NNAL (pg/mL) SW,"Day 0, IQR",[38.45; 98.25]
same,Total NNAL (pg/mL) SW,"Day 1, IQR",[34.90; 83.50]
same,Total NNAL (pg/mL) SW,"Day 2, IQR",[24.85; 54.45]
same,Total NNAL (pg/mL) SW,"Day 3, IQR",[22.65; 50.80]
same,Total NNAL (pg/mL) SW,"Day 4, IQR",[24.75; 54.05]
same,Total NNAL (pg/mL) SW,"Day 5, IQR",[17.30; 40.85]
same,Total NNAL (pg/mL) SW,"Day 30, IQR",[15.30; 37.00]
same,Total NNAL (pg/mL) SW,"Day 60, IQR",[13.70; 30.70]
same,Total NNAL (pg/mL) SW,"Day 90, IQR",[9.90; 29.40]
same,Total NNAL (pg/mL) SW,"Day −1, IQR",[47.95; 119.00]
same,change in total NNAL compared to baseline,day 5,20% decrease to 6% increase and 19% decrease to 5% increase
same,change in total NNAL compared to baseline,day 30,29% decrease to 17.5% increase
